From doi:10.1101/2022.05.16.492129
Like-named read-outs stand apart in the source and are kept apart here. These are yes or no findings as the source states them, for the method shown. Some binding calls cover weakened binding; strength is not graded here.

Protein sequences, listed by entry. Tags and fused reporters are not part of them. Residues count along the entry.
UniProt Q6PDJ1, residues 50-1107: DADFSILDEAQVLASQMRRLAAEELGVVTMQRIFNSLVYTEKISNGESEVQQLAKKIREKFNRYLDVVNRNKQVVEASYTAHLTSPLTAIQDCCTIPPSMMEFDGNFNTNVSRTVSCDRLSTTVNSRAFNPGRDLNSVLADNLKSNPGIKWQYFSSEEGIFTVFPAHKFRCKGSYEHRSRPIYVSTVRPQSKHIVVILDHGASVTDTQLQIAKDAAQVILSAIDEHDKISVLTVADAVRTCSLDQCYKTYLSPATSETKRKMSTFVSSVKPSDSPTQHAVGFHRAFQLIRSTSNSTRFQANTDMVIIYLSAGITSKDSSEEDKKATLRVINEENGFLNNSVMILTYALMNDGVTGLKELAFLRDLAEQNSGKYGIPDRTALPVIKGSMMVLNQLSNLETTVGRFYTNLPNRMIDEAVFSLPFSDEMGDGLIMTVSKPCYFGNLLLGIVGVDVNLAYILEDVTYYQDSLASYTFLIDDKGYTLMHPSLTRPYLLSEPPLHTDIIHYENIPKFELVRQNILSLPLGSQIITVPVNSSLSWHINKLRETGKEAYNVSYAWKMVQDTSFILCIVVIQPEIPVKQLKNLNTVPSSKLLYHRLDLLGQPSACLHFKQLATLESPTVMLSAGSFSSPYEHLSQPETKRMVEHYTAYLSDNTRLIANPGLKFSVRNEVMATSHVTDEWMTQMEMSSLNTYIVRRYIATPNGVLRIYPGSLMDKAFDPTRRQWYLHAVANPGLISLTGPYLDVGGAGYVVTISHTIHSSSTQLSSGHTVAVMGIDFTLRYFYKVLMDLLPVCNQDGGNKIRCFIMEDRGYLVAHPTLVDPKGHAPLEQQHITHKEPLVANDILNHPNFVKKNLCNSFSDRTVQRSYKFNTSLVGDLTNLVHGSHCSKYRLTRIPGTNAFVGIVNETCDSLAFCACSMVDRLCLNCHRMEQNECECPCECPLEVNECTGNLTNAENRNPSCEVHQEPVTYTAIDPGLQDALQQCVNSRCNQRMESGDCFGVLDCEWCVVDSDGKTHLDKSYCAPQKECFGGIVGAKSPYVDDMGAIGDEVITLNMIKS

Tests used:
[1] = biological target: T1, mouse FZD5 cysteine rich domain (FZD5CRD), for crystallography (mouse) (UniProt Q9EQD0); assay: crystal structure
T1 sequence: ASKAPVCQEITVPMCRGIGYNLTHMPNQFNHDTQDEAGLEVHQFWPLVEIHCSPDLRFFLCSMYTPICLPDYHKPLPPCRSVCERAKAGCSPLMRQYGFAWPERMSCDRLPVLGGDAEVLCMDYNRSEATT

[2] = biological target: T1, mouse FZD5 cysteine rich domain (FZD5CRD), for crystallography (mouse); assay: crystal structure; remark: listed apart in the source

binding [1]: binds
binding [2]: binds
Substance: mouse Cachd1 extracellular domain (CACHD1ECD) (from UniProt Q6PDJ1 50-1107) (domain or fragment)
